Reference: patent US20220288045A1, “Stable Pharmaceutical Composition Comprising Esomeprazole And Sodium Bicarbonate” (Chong Kun Dang Pharmaceutical Corp., priority 2019, published 2022)
At least one structure is not confirmed: it was looked up by name or label, or the drawing left a doubt. Some entries share one result that the patent states for a list of compounds.

Assay: Stability test of esomeprazole and omeprazole according to pH (HPLC content in buffer solution)
Format: physicochemical
Conditions: for content according to pH: in % (unit assumed); for time for which stability was exhibited: pH 7.0 or higher
Method: After adding each 2 mL of 20 mg/mL strength of esomeprazole and omeprazole solutions to 100 mL of buffer solution, the content according to pH was analyzed, and the analysis method is as follows. <Analysis Method> A) Detector: Ultraviolet visible light absorption spectrometer (measurement wavelength: 280 nm) B) Column: Inertsil C8-3 (4.6×150 mm, 5 μm) or equivalent column C) Injection amount: 20 μl D) Flow rate: 1.5 mL/min E) Column temperature: constant temperature around 40° C. F) Sample temperature: constant temperature around 10° C.

COc1ccc2[nH]c([S+]([O-])Cc3ncc(C)c(OC)c3C)nc2c1 (stereo not shown) [Omeprazole, 5-methoxy-24(4-methoxy-3,5-dimethyl-2-pyridinyl)methyllsulfinyl-1H-benzimidazole]
content according to pH (pH4.0, 5 min): 57.2
content according to pH (pH4.0, 10 min): 29.4
content according to pH (pH4.0, 15 min): 15.3
content according to pH (pH4.0, 30 min): 6.7
content according to pH (pH4.0, 45 min): 1.6
content according to pH (pH4.0, 60 min): 0.8
content according to pH (pH4.0, 120 min): 0.1
content according to pH (pH6.0, 5 min): 74.9
content according to pH (pH6.0, 10 min): 74.2
content according to pH (pH6.0, 15 min): 71.7
content according to pH (pH6.0, 30 min): 69.6
content according to pH (pH6.0, 45 min): 65.4
content according to pH (pH6.0, 60 min): 64.1
content according to pH (pH6.0, 120 min): 55.1
content according to pH (pH6.8, 5 min): 91.5
content according to pH (pH6.8, 10 min): 90.5
content according to pH (pH6.8, 15 min): 89.9
content according to pH (pH6.8, 30 min): 89.8
content according to pH (pH6.8, 45 min): 88.8
content according to pH (pH6.8, 60 min): 88.3
content according to pH (pH6.8, 120 min): 85.5
content according to pH (pH7.0, 5 min): 100.5
content according to pH (pH7.0, 10 min): 99.0
content according to pH (pH7.0, 15 min): 98.9
content according to pH (pH7.0, 30 min): 98.2
content according to pH (pH7.0, 45 min): 97.9
content according to pH (pH7.0, 60 min): 97.5
content according to pH (pH7.0, 120 min): 95.8
time for which stability was exhibited: at least 2 hours
content according to pH (pH7.3, 5 min): 99.8
content according to pH (pH7.3, 10 min): 100.0
content according to pH (pH7.3, 15 min): 99.9
content according to pH (pH7.3, 30 min): 99.8
content according to pH (pH7.3, 45 min): 99.8
content according to pH (pH7.3, 60 min): 99.8
content according to pH (pH7.3, 120 min): 99.86
content according to pH (pH7.5, 5 min): 100.5
content according to pH (pH7.5, 10 min): 99.7
content according to pH (pH7.5, 15 min): 99.7
content according to pH (pH7.5, 30 min): 99.4
content according to pH (pH7.5, 45 min): 99.2
content according to pH (pH7.5, 60 min): 98.9
content according to pH (pH7.5, 120 min): 98.2
content according to pH (pH8.0, 15 min): 99.7
content according to pH (pH8.0, 30 min): 99.6
content according to pH (pH8.0, 45 min): 99.5
content according to pH (pH8.0, 60 min): 99.5
content according to pH (pH8.0, 120 min): 98.6

COc1ccc2nc([S@@+]([O-])Cc3ncc(C)c(OC)c3C)[nH]c2c1 [S-omeprazole, (S)-5-methoxy-24(4-methoxy-3,5-dimethyl-2-pyridinyl)-methyllsulfinyl-1H-benzimidazole]
time for which stability was exhibited: at least 2 hours
